These are yes or no findings as the source states them, for the method shown. Binding seen in cells or lysates may run through a third protein. Some results given as binding are weak or reduced against the parent protein; the word gives no strength.
Key:
[1] = target: endogenous gC1qR/p32 of tumor cells and tissues (extracts of MDA-MB-435 cells, BT549 cells, MDA-MB-435 tumor xenografts; blots and sections) (human) (UniProt Q07021); test: pull-down with biotinylated peptide
[2] = target: endogenous gC1qR/p32 of tumor cells and tissues (extracts of MDA-MB-435 cells, BT549 cells, MDA-MB-435 tumor xenografts; blots and sections) (human) (UniProt Q07021); test: pull-down with biotinylated peptide from MDA-MB-435 cell extracts
[3] = target: endogenous gC1qR/p32 of tumor cells and tissues (extracts of MDA-MB-435 cells, BT549 cells, MDA-MB-435 tumor xenografts; blots and sections) (human) (UniProt Q07021); test: pull-down with biotinylated peptide from MDA-MB-435 cell and xenograft extracts
[4] = target: endogenous gC1qR/p32 of tumor cells and tissues (extracts of MDA-MB-435 cells, BT549 cells, MDA-MB-435 tumor xenografts; blots and sections) (human) (UniProt Q07021); test: pull-down with biotin-labeled peptide from MDA-MB-435 extracts; band identified as mature gC1qR/p32 by MALDI-TOF

Chains of the proteins cited; added tags and fusions are not shown. Residues count along the entry.
UniProt Q07021, residues 74-282: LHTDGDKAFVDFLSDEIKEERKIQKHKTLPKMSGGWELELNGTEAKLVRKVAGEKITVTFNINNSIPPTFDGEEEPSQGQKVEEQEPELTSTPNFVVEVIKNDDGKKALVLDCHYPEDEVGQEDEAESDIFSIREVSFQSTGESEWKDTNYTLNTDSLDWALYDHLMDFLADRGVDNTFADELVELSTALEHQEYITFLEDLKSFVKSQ

Measured: binding

B1: biotinylated LyP-1 peptide (…) (peptide)
peptide: CGNKRTRGC
modifications: biotinylated (site not told); described as a cyclic nonapeptide
binds: [1] | [2] | [3] | [4]

Source: patent publication US20080014143A1 (SANFORD BURNHAM MEDICAL RESEARCH INSTITUTE, published 2008)
